PubChem BioAssay AID1224830 – NIAID, 2016
This is an unselected part of about 18,000 reagents. Over the whole deposit, about 2,900 (16%) were called active. 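Calls are made per well; low scores hint the gene aids the LPS response, high scores that it dampens it.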 Unmarked entries are inactive. Repeated entries: four replicate wells of each siRNA pool.

- Assay: 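Host factors that control LPS-induced TNF expression in human macrophages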 (primary screen)
- Cell system: human THP-1 monocytic leukaemia cells, TNF dual-luciferase reporter clone, PMA-differentiated to macrophage-like cells
- Reagent: siRNA pool against human genes, 50 nM
- Timing: LPS for 4 h, given about 3 days after siRNA transfection
- Conditions: bacterial LPS (TLR4 ligand), 10 ng/ml
- Read-out: 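Ratio of firefly to renilla light, scaled to the plate median and expressed as a robust z-score per replicate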
- Direction: TNF reporter robust z-score: higher = stronger TNF reporter response to LPS
- Active means: 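Each well counts as active if its z-score is over 2.8 or under -1.5; controls are left without a call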

| target | TNF reporter robust z-score |
| --- | --- |
| RPS21 (ribosomal protein S21) | -1.13 |
| RPS21 (ribosomal protein S21) | -0.7 |
| RPS21 (ribosomal protein S21) | -1.01 |
| RPS21 (ribosomal protein S21) | -1.11 |
| PZP (PZP alpha-2-macroglobulin like) | 1.15 |
| PZP (PZP alpha-2-macroglobulin like) | 1.81 |
| PZP (PZP alpha-2-macroglobulin like) | 2.32 |
| PZP (PZP alpha-2-macroglobulin like) | 1.96 |
| NOX3 (NADPH oxidase 3) | 0.01 |
| NOX3 (NADPH oxidase 3) | 0.93 |
| NOX3 (NADPH oxidase 3) | 0.05 |
| NOX3 (NADPH oxidase 3) | 0.84 |
| MAD2L2 (mitotic arrest deficient 2 like 2) | -2.01 (active) |
| MAD2L2 (mitotic arrest deficient 2 like 2) | -1.64 (active) |
| MAD2L2 (mitotic arrest deficient 2 like 2) | -1.82 (active) |
| UXS1 (UDP-glucuronate decarboxylase 1) | 1.77 |
| UXS1 (UDP-glucuronate decarboxylase 1) | 0.02 |
| UXS1 (UDP-glucuronate decarboxylase 1) | 2.19 |
| UXS1 (UDP-glucuronate decarboxylase 1) | 0.38 |
| LOXL2 (lysyl oxidase like 2) | -1.74 (active) |
| LOXL2 (lysyl oxidase like 2) | -1.21 |
| LOXL2 (lysyl oxidase like 2) | -1.6 (active) |
| LOXL2 (lysyl oxidase like 2) | -1.24 |
| GKAP1 (G kinase anchoring protein 1) | 1.9 |
| GKAP1 (G kinase anchoring protein 1) | 2.73 |
| GKAP1 (G kinase anchoring protein 1) | 0.1 |
| GKAP1 (G kinase anchoring protein 1) | 2.62 |
| CDK11A (cyclin dependent kinase 11A) | -0.25 |
| CDK11A (cyclin dependent kinase 11A) | 1.14 |
| CDK11A (cyclin dependent kinase 11A) | 0.49 |
| CDK11A (cyclin dependent kinase 11A) | 0.29 |
| RMND5B (required for meiotic nuclear division 5 homolog B) | 0.38 |
| RMND5B (required for meiotic nuclear division 5 homolog B) | -0.59 |
| RMND5B (required for meiotic nuclear division 5 homolog B) | -0.55 |
| RMND5B (required for meiotic nuclear division 5 homolog B) | -0.46 |
| KIF5B (kinesin family member 5B) | 0.4 |
| KIF5B (kinesin family member 5B) | 1.14 |
| KIF5B (kinesin family member 5B) | 0.56 |
| KIF5B (kinesin family member 5B) | 1.51 |
| GGTLC2 (gamma-glutamyltransferase light chain 2) | 1.58 |
| GGTLC2 (gamma-glutamyltransferase light chain 2) | -0.64 |
| GGTLC2 (gamma-glutamyltransferase light chain 2) | -0.18 |
| GGTLC2 (gamma-glutamyltransferase light chain 2) | -0.3 |
| RUFY4 (RUN and FYVE domain containing 4) | -1.12 |
| RUFY4 (RUN and FYVE domain containing 4) | -0.94 |
| RUFY4 (RUN and FYVE domain containing 4) | -0.56 |
| COQ7 (coenzyme Q7, hydroxylase) | 1.5 |
| COQ7 (coenzyme Q7, hydroxylase) | -0.1 |
| COQ7 (coenzyme Q7, hydroxylase) | -0.82 |
| COQ7 (coenzyme Q7, hydroxylase) | 2.36 |
| RP2 (RP2 activator of ARL3 GTPase) | -0.2 |
| RP2 (RP2 activator of ARL3 GTPase) | 0.62 |
| RP2 (RP2 activator of ARL3 GTPase) | 0.74 |
| RP2 (RP2 activator of ARL3 GTPase) | 0.52 |

16 neighbouring entries already listed, for reference:
| target | TNF reporter robust z-score |
| --- | --- |
| LOXL2 (lysyl oxidase like 2) | -1.6 (active) |
| LOXL2 (lysyl oxidase like 2) | -1.24 |
| GKAP1 (G kinase anchoring protein 1) | 1.9 |
| GKAP1 (G kinase anchoring protein 1) | 2.73 |
| GKAP1 (G kinase anchoring protein 1) | 0.1 |
| GKAP1 (G kinase anchoring protein 1) | 2.62 |
| CDK11A (cyclin dependent kinase 11A) | -0.25 |
| CDK11A (cyclin dependent kinase 11A) | 1.14 |
| CDK11A (cyclin dependent kinase 11A) | 0.49 |
| CDK11A (cyclin dependent kinase 11A) | 0.29 |
| RMND5B (required for meiotic nuclear division 5 homolog B) | 0.38 |
| RMND5B (required for meiotic nuclear division 5 homolog B) | -0.59 |
| RMND5B (required for meiotic nuclear division 5 homolog B) | -0.55 |
| RMND5B (required for meiotic nuclear division 5 homolog B) | -0.46 |
| KIF5B (kinesin family member 5B) | 0.4 |
| KIF5B (kinesin family member 5B) | 1.14 |

More records follow.
| target | TNF reporter robust z-score |
| --- | --- |
| TMEM213 (transmembrane protein 213) | 0.02 |
| TMEM213 (transmembrane protein 213) | -0.8 |
| TMEM213 (transmembrane protein 213) | -0.63 |
| TMEM213 (transmembrane protein 213) | -0.97 |
| NYAP1 | -0.25 |
| NYAP1 | -0.26 |
| NYAP1 | -0.41 |
| NYAP1 | 0.74 |
| OR4K17 (olfactory receptor family 4 subfamily K member 17) | -1.1 |
| OR4K17 (olfactory receptor family 4 subfamily K member 17) | -0.18 |
| OR4K17 (olfactory receptor family 4 subfamily K member 17) | -0.54 |
| OR4K17 (olfactory receptor family 4 subfamily K member 17) | -0.07 |
| TRAFD1 (TRAF-type zinc finger domain containing 1) | 0.34 |
| TRAFD1 (TRAF-type zinc finger domain containing 1) | 0.13 |
| TRAFD1 (TRAF-type zinc finger domain containing 1) | 1.46 |
| TRAFD1 (TRAF-type zinc finger domain containing 1) | 1.16 |
| APOBEC3G (apolipoprotein B mRNA editing enzyme catalytic subunit 3G) | 0.68 |
| APOBEC3G (apolipoprotein B mRNA editing enzyme catalytic subunit 3G) | -0.82 |
| APOBEC3G (apolipoprotein B mRNA editing enzyme catalytic subunit 3G) | 0.35 |
| APOBEC3G (apolipoprotein B mRNA editing enzyme catalytic subunit 3G) | 0.27 |
| ENOPH1 (enolase-phosphatase 1) | 0.92 |
| ENOPH1 (enolase-phosphatase 1) | 1.26 |
| ENOPH1 (enolase-phosphatase 1) | -0.45 |
| ENOPH1 (enolase-phosphatase 1) | 0.3 |
| LAMB2 (laminin subunit beta 2) | 0.22 |
| LAMB2 (laminin subunit beta 2) | 0.92 |
| LAMB2 (laminin subunit beta 2) | -0.01 |
| LAMB2 (laminin subunit beta 2) | 0.66 |
| SUN3 (Sad1 and UNC84 domain containing 3) | 1.4 |
| SUN3 (Sad1 and UNC84 domain containing 3) | 2.49 |
| SUN3 (Sad1 and UNC84 domain containing 3) | 1.6 |
| SUN3 (Sad1 and UNC84 domain containing 3) | 4.01 (active) |
| DNAAF6 (dynein axonemal assembly factor 6) | -0.87 |
| DNAAF6 (dynein axonemal assembly factor 6) | -0.18 |
| DNAAF6 (dynein axonemal assembly factor 6) | -0.95 |
| DNAAF6 (dynein axonemal assembly factor 6) | -0.94 |
| OR14K1 (olfactory receptor family 14 subfamily K member 1) | 0.29 |
| OR14K1 (olfactory receptor family 14 subfamily K member 1) | -0.1 |
| OR14K1 (olfactory receptor family 14 subfamily K member 1) | -0.66 |
| OR14K1 (olfactory receptor family 14 subfamily K member 1) | 0.01 |
| SHARPIN (SHANK associated RH domain interactor) | 1.02 |
| SHARPIN (SHANK associated RH domain interactor) | 0.01 |
| SHARPIN (SHANK associated RH domain interactor) | -0.72 |
| SHARPIN (SHANK associated RH domain interactor) | -1.03 |
| BOC (BOC cell adhesion associated, oncogene regulated) | 1.7 |
| BOC (BOC cell adhesion associated, oncogene regulated) | 2.26 |
| BOC (BOC cell adhesion associated, oncogene regulated) | 1.37 |
| BOC (BOC cell adhesion associated, oncogene regulated) | 2.73 |
| CRELD2 (CRELD disulfide isomerase 2) | -0.06 |
| CRELD2 (CRELD disulfide isomerase 2) | -0.41 |
| CRELD2 (CRELD disulfide isomerase 2) | -0.56 |
| CRELD2 (CRELD disulfide isomerase 2) | 0.43 |
| CLCN2 (chloride voltage-gated channel 2) | -1.61 (active) |
| CLCN2 (chloride voltage-gated channel 2) | -0.88 |
| CLCN2 (chloride voltage-gated channel 2) | -0.16 |
| CLCN2 (chloride voltage-gated channel 2) | -0.42 |
| PATE1 (prostate and testis expressed 1) | -0.76 |
| PATE1 (prostate and testis expressed 1) | -0.12 |
| PATE1 (prostate and testis expressed 1) | 0.56 |
| PATE1 (prostate and testis expressed 1) | 0.66 |
| HCRTR1 (hypocretin receptor 1) | 1.38 |
| HCRTR1 (hypocretin receptor 1) | 1.94 |
| HCRTR1 (hypocretin receptor 1) | 1.56 |
| HCRTR1 (hypocretin receptor 1) | 1 |
| E2F3 (E2F transcription factor 3) | -0.84 |
| E2F3 (E2F transcription factor 3) | -1.85 (active) |
| E2F3 (E2F transcription factor 3) | -1.09 |
| E2F3 (E2F transcription factor 3) | -0.64 |
| CXCL10 (C-X-C motif chemokine ligand 10) | -0.31 |
| CXCL10 (C-X-C motif chemokine ligand 10) | -0.2 |
| CXCL10 (C-X-C motif chemokine ligand 10) | -0.89 |
| CXCL10 (C-X-C motif chemokine ligand 10) | 0.07 |
| PSPH (phosphoserine phosphatase) | -0.39 |
| PSPH (phosphoserine phosphatase) | -0.94 |
| PSPH (phosphoserine phosphatase) | -0.42 |
| PSPH (phosphoserine phosphatase) | -0.61 |
| ZNF324 (zinc finger protein 324) | 2.74 |
| ZNF324 (zinc finger protein 324) | 3.76 (active) |
| ZNF324 (zinc finger protein 324) | 3.44 (active) |
| ZNF324 (zinc finger protein 324) | 3.7 (active) |
| P4HA1 (prolyl 4-hydroxylase subunit alpha 1) | -1.05 |
| P4HA1 (prolyl 4-hydroxylase subunit alpha 1) | 0.99 |
| P4HA1 (prolyl 4-hydroxylase subunit alpha 1) | 0.34 |
| P4HA1 (prolyl 4-hydroxylase subunit alpha 1) | 1.11 |
| PGRMC1 (progesterone receptor membrane component 1) | 0.33 |
| PGRMC1 (progesterone receptor membrane component 1) | 0.02 |
| PGRMC1 (progesterone receptor membrane component 1) | 0.69 |
| PGRMC1 (progesterone receptor membrane component 1) | 3.23 (active) |
